Source: US4192871A, “Chemical compounds” (Glaxo Laboratories Limited, priority 1976, dated 1980)
Some results were stated once for a whole list of compounds, not compound by compound.

Experiment: anaesthetic activity tests (intravenous administration)
Format: in vivo
Settings: compound and salts
Source text: In the tests we have carried out, the compounds of the invention have been shown generally to be good anaesthetics, usually giving instantaneous induction of anaesthesia when administered intravenously. […] The compounds of the invention are of use for inducing anaesthesia which is to be maintained for example by an inhalation anaesthetic, such as ether, halothane, nitrous oxide or trichloroethylene. The compounds may also be capable of maintaining anaesthesia to a sufficient degree to enable surgical operations to be conducted without the aid of an inhalation anaesthetic, the anaesthesia being maintained if necessary by repeated or continuous administration. The compounds may have other desirable central nervous system depressant activities, for example they may be of use as sedatives.

SMILES	activity shown in our tests (preference grade)	other results
CCCN(CCC)CC(=O)O[C@H]1C[C@]2(C)[C@@H](C(C)=O)CC[C@H]2[C@@H]2CC[C@H]3C[C@H](O)CC[C@]3(C)[C@H]21 [Example 1, 3α-Hydroxy-11β-dipropylaminoacetoxy-5α-pregnan-20-one]	particularly preferred on account of the activity shown in our tests	
CCCN(CCC)CC(=O)O[C@H]1C[C@]2(C)[C@@H](C(C)=O)CC[C@H]2[C@@H]2CC[C@H]3C[C@H](O)[C@@H](OCC)C[C@]3(C)[C@H]21 [Example 9, 2β-ethoxy-11β-N,N-dipropylaminoacetoxy-3α-hydroxy-5α-pregnan-20-one]	particularly preferred on account of the activity shown in our tests	
CCCO[C@H]1C[C@@]2(C)[C@@H](CC[C@@H]3[C@@H]2[C@@H](OC(=O)CN(CC)CC)C[C@]2(C)[C@@H](C(C)=O)CC[C@@H]32)C[C@@H]1O [Example 11, 2β-propoxy-11β-N,N-diethylaminoacetoxy-3α-hydroxy-5α-pregnan-20-one]	particularly preferred on account of the activity shown in our tests	
CCN(CC)CC(=O)O[C@H]1C[C@]2(C)[C@@H](C(C)=O)CC[C@H]2[C@@H]2CC[C@H]3C[C@H](O)CC[C@]3(C)[C@H]21 [Example 45, 11β-N,N-diethylaminoacetoxy-3α-hydroxy-5α-pregnan-20-one]	particularly preferred on account of the activity shown in our tests	
CCO[C@H]1C[C@@]2(C)[C@@H](CC[C@@H]3[C@@H]2[C@@H](OC(=O)CN(CC)CC)C[C@]2(C)[C@@H](C(C)=O)CC[C@@H]32)C[C@@H]1O [Example 101, 2β-Ethoxy-11β-diethylaminoacetoxy-3α-hydroxy-5α-pregnan-20-one]		activity shown in our tests (preference grade) (listed as compound 6): particularly preferred on account of the activity shown in our tests
CCCN(CCC)CC(=O)O[C@H]1C[C@]2(C)[C@@H](C#N)CC[C@H]2[C@@H]2CC[C@H]3C[C@H](O)CC[C@]3(C)[C@H]21 [Example 106, 3α-Hydroxy-11β-dipropylaminoacetoxy-5α-androstane-17β-carbonitrile]	particularly preferred on account of the activity shown in our tests	
CCCCN(C)CC(=O)O[C@H]1C[C@]2(C)[C@@H](C(C)=O)CC[C@H]2[C@@H]2CC[C@H]3C[C@H](O)CC[C@]3(C)[C@H]21 [Example 111, 11β-(N-Butyl-N-methylaminoacetoxy)-3α-hydroxy-5α-pregnan-20-one]		activity shown in our tests (preference grade) (listed as compound 10): particularly preferred on account of the activity shown in our tests
CCCCN(CC)CC(=O)O[C@H]1C[C@]2(C)[C@@H](C(C)=O)CC[C@H]2[C@@H]2CC[C@H]3C[C@H](O)CC[C@]3(C)[C@H]21 [Example 115, 11β-(N-Butyl-N-ethylaminoacetoxy)-3α-hydroxy-5α-pregnan-20-one]		activity shown in our tests (preference grade) (listed as compound 12): particularly preferred on account of the activity shown in our tests
CC(=O)[C@H]1CC[C@H]2[C@@H]3CC[C@H]4C[C@H](O)CC[C@]4(C)[C@H]3[C@@H](OC(=O)CN3CCCCC3)C[C@]12C [compound 2, 11β-piperidinoacetoxy-3α-hydroxy-5α-pregnan-20-one]	particularly preferred on account of the activity shown in our tests	
CC(=O)[C@H]1CC[C@H]2[C@@H]3CC[C@H]4C[C@H](O)CC[C@]4(C)[C@H]3[C@@H](OC(=O)CN3CCCC(C)C3)C[C@]12C (stereo partly drawn) [compound 3, 11β-(3-methylpiperidinoacetoxy)-3α-hydroxy-5α-pregnan-20-one]	particularly preferred on account of the activity shown in our tests	
CC(=O)[C@H]1CC[C@H]2[C@@H]3CC[C@H]4C[C@H](O)CC[C@]4(C)[C@H]3[C@@H](OC(=O)CN3CCC(C)CC3)C[C@]12C [compound 4, 11β-(4-methylpiperidinoacetoxy)-3α-hydroxy-5α-pregnan-20-one]	particularly preferred on account of the activity shown in our tests	
CC(=O)[C@H]1CC[C@H]2[C@@H]3CC[C@H]4C[C@H](O)CC[C@]4(C)[C@H]3[C@@H](OC(=O)CN3CCCCC3C)C[C@]12C (stereo partly drawn) [compound 5, 11β-(2-methylpiperidinoacetoxy)-3α-hydroxy-5α-pregnan-20-one]	particularly preferred on account of the activity shown in our tests	
CC(=O)[C@H]1CC[C@H]2[C@@H]3CC[C@H]4C[C@H](O)CC[C@]4(C)[C@H]3[C@@H](OC(=O)CN3CCCCCC3)C[C@]12C [compound 7, 11β-hexamethyleniminoacetoxy-3α-hydroxy-5α-pregnan-20-one]	particularly preferred on account of the activity shown in our tests	
CCCCN(C)CC(=O)O[C@H]1C[C@]2(C)[C@@H](C(C)=O)CC[C@H]2[C@@H]2CC[C@H]3C[C@H](O)[C@@H](OCC)C[C@]3(C)[C@H]21 [compound 11, 2β-ethoxy-11β-N-methyl-N-butylaminoacetoxy-3α-hydroxy-5α-pregnan-20-one]	particularly preferred on account of the activity shown in our tests	
CCC(C)CNCC(=O)O[C@H]1C[C@]2(C)[C@@H](C(C)=O)CC[C@H]2[C@@H]2CC[C@H]3C[C@H](O)CC[C@]3(C)[C@H]21 (stereo partly drawn) [compound 14, 3α-hydroxy-11β-2'-methylbutylaminoacetoxy-5α-pregnan-20-one]	particularly preferred on account of the activity shown in our tests	
CC(=O)[C@H]1CC[C@H]2[C@@H]3CC[C@H]4C[C@](C)(O)CC[C@]4(C)[C@H]3[C@@H](OC(=O)CN3CCCCC3)C[C@]12C [compound 15, 3α-hydroxy-3β-methyl-11β-piperidinoacetoxy-5α-pregnan-20-one]	particularly preferred on account of the activity shown in our tests	
CC(=O)[C@H]1CC[C@H]2[C@@H]3CC[C@H]4C[C@H](O)CC[C@]4(C)[C@H]3[C@@H](OC(=O)CN(C)C(C)CC(C)C)C[C@]12C (stereo partly drawn) [compound 18, 3α-hydroxy-11β-N-methyl-N-1',3'-dimethylbutylaminoacetoxy-5α-pregnan-20-one]	particularly preferred on account of the activity shown in our tests	
CC(=O)[C@H]1CC[C@H]2[C@@H]3CC[C@H]4C[C@H](O)CC[C@]4(C)[C@H]3[C@@H](OC(=O)CN(C)[C@H](C)CC(C)C)C[C@]12C [compound 19]	particularly preferred on account of the activity shown in our tests	
CC(=O)[C@H]1CC[C@H]2[C@@H]3CC[C@H]4C[C@H](O)CC[C@]4(C)[C@H]3[C@@H](OC(=O)CN(C)[C@@H](C)CC(C)C)C[C@]12C [compound 20, 3α-hydroxy-11β-N-methyl-N-[(2S)-1',3'-dimethylbutyl] aminoacetoxy-5α-pregnan-20-one]	particularly preferred on account of the activity shown in our tests	
